Values of other authors in article PMC7994622, “Eryptosis and Malaria: New Experimental Guidelines and Re-Evaluation of the Antimalarial Potential of Eryptosis Inducers” (Frontiers in Cellular and Infection Microbiology, 2021).
Where a name gives a salt, the structure may show the parent alone.

System: P. falciparum-infected erythrocytes
Conditions: 10 μM, BinH strain, 2% hematocrit, 24 h, synchronized late stages; ref Bobbala et al., 2010b; cited from earlier work

For CCCCc1oc2ccccc2c1C(=O)c1cc(I)c(OCCN(CC)CC)c(I)c1 [Amiodarone, amiodarone HCl], the “PS exposure of P. falciparum-infected erythrocytes” value is given as “increase PS exposure”.
